In US20170189504A1, “NOVEL PEPTIDES AND COMBINATION OF PEPTIDES FOR USE IN IMMUNOTHERAPY AGAINST VARIOUS CANCERS” (immatics biotechnologies GmbH, priority 2015, published 2017):

How the values were obtained:
HLA-A*02 = assay: Identification and relative LC-MS quantitation of HLA-A*02-presented tumor-associated peptides on tissue samples (presentation profiles, Tables 13A, 13B, 15, FIG. 1); design: species or system human; key to Presentation score NHL / Presentation score CLL / Presentation score BRCA / Presentation score AML / Presentation score GB / Presentation score NSCLC / Presentation score GBC_CCC / Presentation score UEC / Presentation score MEL / Presentation score OSCAR / Presentation score GC / Presentation score UBC / Presentation score OC / Presentation score RCC / Presentation score CRC / Presentation score PCA / Presentation score HCC / Presentation score PC / Presentation score SCLC: specifically presented on tumors (++++); very highly over-presented on tumors compared to a panel of normal tissues (+++); highly over-presented on tumors compared to a panel of normal tissues (++); over-presented on tumors compared to a panel of normal tissues (+); settings: for Peptide Presentation on cancer entities: HLA-A*02-binding tumor-associated peptides
source genes (mRNA) [1] = assay: Gene and exon expression of source genes, TCGA tumor samples compared with normal tissue samples (Lonsdale, 2013) (Table 17); design: species or system human; settings: for Target coverage: over-expression category of source gene, LAML: Acute Myeloid Leukemia (N = 173)
source genes (mRNA) [2] = assay: Expression profiling of source genes by in-house RNASeq of tumor and normal tissues (Table 18, FIG. 2); design: species or system human; key: very highly over-expressed in tumors compared to a panel of normal tissues (+++); highly over-expressed in tumors compared to a panel of normal tissues (++); over-expressed in tumors compared to a panel of normal tissues (+); settings: source gene of peptide; for Expression score PC: pancreatic cancer (N = 26) vs panel of normal tissues; for Expression score PCA: prostate cancer and benign prostate hyperplasia (N = 5) vs panel of normal tissues; for Expression score UEC: uterine cancer (N = 10) vs panel of normal tissues
[3] = Table 13A, cancer entities on which the peptide was found presented
[4] = cutoff more than 2-fold above highest 75% percentile of normal tissue samples

99: peptide found in SMCHD1 (gene looked up) (YLLQSVNQLLL; listed as Homo sapiens) [compound 99]
Presentation score CLL (HLA-A*02; HLA-A*02 peptides, chronic lymphocytic leukemia (N = 17) vs panel of normal tissues (N = 262)): +++ | Presentation score NHL (HLA-A*02; HLA-A*02 peptides, non-Hodgkin lymphoma (N = 18) vs panel of normal tissues (N = 262)): +++ | Peptide Presentation on cancer entities (HLA-A*02; [3]): NSCLC, CLL, NHL | Target coverage: over-expression category of source gene, LAML (source genes (mRNA) [1]; [4]): A (>=50% of tumors above the cutoff) | Target coverage: over-expression category of source gene, BRCA (source genes (mRNA) [1]; Breast cancer (N = 1104), cutoff more than 2-fold above highest 75% percentile of high and medium risk normal tissue samples): C (>=5% of tumors above the cutoff, but <20%) | Target coverage: over-expression category of source gene, ESCA (source genes (mRNA) [1]; Esophageal cancer (N = 185), cutoff more than 2-fold above highest 75% percentile of normal tissue samples): B (>= 20% of tumors above the cutoff, but <50%) | Target coverage: over-expression category of source gene, STAD (source genes (mRNA) [1]; Stomach adenocarcinoma (N = 415), cutoff more than 2-fold above highest 75% percentile of normal tissue samples): B (>= 20% of tumors above the cutoff, but <50%) | Expression score AML (source genes (mRNA) [2]; acute myeloid leukemia (N = 11) vs panel of normal tissues): + | Expression score CLL (source genes (mRNA) [2]; chronic lymphocytic leukemia (N = 10) vs panel of normal tissues): +++ | Expression score GBC_CCC (source genes (mRNA) [2]; gallbladder adenocarcinoma and cholangiocarcinoma (N = 3) vs panel of normal tissues): + | Expression score GC (source genes (mRNA) [2]; gastric cancer (N = 11) vs panel of normal tissues): + | Expression score GB (source genes (mRNA) [2]; glioblastoma (N = 24) vs panel of normal tissues): + | Expression score NHL (source genes (mRNA) [2]; non-Hodgkin lymphoma (N = 10) vs panel of normal tissues): + | Expression score NSCLC (source genes (mRNA) [2]; non-small cell lung cancer (N = 11) vs panel of normal tissues): + | Expression score OC (source genes (mRNA) [2]; ovarian cancer (N = 12) vs panel of normal tissues): + | Expression score PC (source genes (mRNA) [2]): + | Expression score PCA (source genes (mRNA) [2]): + | Expression score SCLC (source genes (mRNA) [2]; small cell lung cancer (N = 10) vs panel of normal tissues): ++ | Expression score UEC (source genes (mRNA) [2]): +

100: peptide found in SLC18A2 (gene looked up) (ALLGMIIVGV; listed as Homo sapiens) [compound 100]
Presentation score BRCA (HLA-A*02; HLA-A*02 peptides, breast cancer (N = 17) vs panel of normal tissues (N = 262)): +++ | Peptide Presentation on cancer entities (HLA-A*02; [3]): PCA, SCLC, BRCA | Peptide Presentation on cancer entities (HLA-A*02; Table 13B, presentation on additional cancer entities): HCC, AML | Target coverage: over-expression category of source gene, LAML (source genes (mRNA) [1]; [4]): C (>=5% of tumors above the cutoff, but <20%) | Expression score HCC (source genes (mRNA) [2]; hepatocellular carcinoma (N = 15) vs panel of normal tissues): +++ | Expression score PC (source genes (mRNA) [2]): ++ | Expression score PCA (source genes (mRNA) [2]): +++ | Expression score UEC (source genes (mRNA) [2]): +

For part of these data: For expression read-outs the peptide stands for its source gene, whose mRNA was measured; the gene is not named for every peptide.
